From PMC12881522
Results are given in words; binding and its absence hold for the method and conditions named. Binding seen in cells or lysates may run through a third protein. Binding calls can cover weak binding; strength is not graded here. Where a sequence is shown, tags or fusion partners need not be part of it.

Molecular target: T1, spGFP1-10-ZIG-8 (Zwei IG domain protein-8), knock-in allele spgfp1-10::zig-8 (C. elegans) (UniProt G5ED00)
T1 sequence: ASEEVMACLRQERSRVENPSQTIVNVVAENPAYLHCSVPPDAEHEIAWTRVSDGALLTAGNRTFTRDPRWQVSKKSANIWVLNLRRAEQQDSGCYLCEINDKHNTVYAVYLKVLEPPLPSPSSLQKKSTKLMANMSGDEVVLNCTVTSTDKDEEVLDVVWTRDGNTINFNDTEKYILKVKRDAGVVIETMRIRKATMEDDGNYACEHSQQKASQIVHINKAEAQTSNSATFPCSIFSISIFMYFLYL
Assay: split reporter; GRASP (GFP Reconstruction Across Synaptic Partners) in a spgfp11::rig-5 and spgfp1-10::zig-8 double knock-in C. elegans strain; live spinning disk imaging of the ventral nerve cord; auxin treatment to degrade ACR-16 in muscle

- binding: binds
Substance: spGFP11-RIG-5 (neuRonal IG CAM-5), knock-in allele spgfp11::rig-5 (C. elegans)
